Measurements from article doi:10.1101/2024.09.14.613007.
Results are given in words; binding and its absence hold for the method and conditions named. Binding seen in cells or lysates may run through a third protein. Some entries that bind do so weakly or less than the wild type.

Target: p21-GFP WT (endogenous p21 tagged with GFP in RPE-1 cells) (human (endogenous in RPE-1)), P38936
Experiment: pull-down
Conditions: remark: other sources report otherwise

B1: CDK4, P11802 1-303 (enzyme)
chain: MATSRYEPVAEIGVGAYGTVYKARDPHSGHFVALKSVRVPNGGGGGGGLPISTVREVALLRRLEAFEHPNVVRLMDVCATSRTDREIKVTLVFEHVDQDLRTYLDKAPPPGLPAETIKDLMRQFLRGLDFLHANCIVHRDLKPENILVTSGGTVKLADFGLARIYSYQMALTPVVVTLWYRAPEVLLQSTYATPVDMWSVGCIFAEMFRRKPLFCGNSEADQLGKIFDLIGLPPEDDWPRDVSLPRGAFPPRGPRPVQSVVPEMEESGAQLLLEMLTFNPHKRISAFRALQHSYLHKDEGNPE
For B1, the binding was “binds”.
